# Some of the results follow.
# The chains behind the UniProt entries cited, without tags or fusion partners. Where a name states a change or a piece, a line headed by the entry shows the natural chain unless it says otherwise.
# UniProt Q16576, whole entry: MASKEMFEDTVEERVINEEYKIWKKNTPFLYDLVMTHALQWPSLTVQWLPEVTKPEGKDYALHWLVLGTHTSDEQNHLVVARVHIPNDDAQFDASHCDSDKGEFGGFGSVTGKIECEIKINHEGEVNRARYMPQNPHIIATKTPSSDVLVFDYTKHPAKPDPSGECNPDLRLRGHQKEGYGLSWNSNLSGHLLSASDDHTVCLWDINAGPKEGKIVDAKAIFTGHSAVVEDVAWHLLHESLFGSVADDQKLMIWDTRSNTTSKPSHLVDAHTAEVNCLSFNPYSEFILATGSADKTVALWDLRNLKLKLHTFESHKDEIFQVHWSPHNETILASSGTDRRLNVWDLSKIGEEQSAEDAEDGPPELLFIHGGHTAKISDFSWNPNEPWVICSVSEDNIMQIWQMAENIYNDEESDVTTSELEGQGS
# UniProt P51149, whole entry: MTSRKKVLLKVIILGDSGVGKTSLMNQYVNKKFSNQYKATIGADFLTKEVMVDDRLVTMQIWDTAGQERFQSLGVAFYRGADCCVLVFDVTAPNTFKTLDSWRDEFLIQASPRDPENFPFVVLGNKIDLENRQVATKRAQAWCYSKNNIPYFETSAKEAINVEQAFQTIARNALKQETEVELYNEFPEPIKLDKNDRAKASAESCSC
# UniProt Q09028, whole entry: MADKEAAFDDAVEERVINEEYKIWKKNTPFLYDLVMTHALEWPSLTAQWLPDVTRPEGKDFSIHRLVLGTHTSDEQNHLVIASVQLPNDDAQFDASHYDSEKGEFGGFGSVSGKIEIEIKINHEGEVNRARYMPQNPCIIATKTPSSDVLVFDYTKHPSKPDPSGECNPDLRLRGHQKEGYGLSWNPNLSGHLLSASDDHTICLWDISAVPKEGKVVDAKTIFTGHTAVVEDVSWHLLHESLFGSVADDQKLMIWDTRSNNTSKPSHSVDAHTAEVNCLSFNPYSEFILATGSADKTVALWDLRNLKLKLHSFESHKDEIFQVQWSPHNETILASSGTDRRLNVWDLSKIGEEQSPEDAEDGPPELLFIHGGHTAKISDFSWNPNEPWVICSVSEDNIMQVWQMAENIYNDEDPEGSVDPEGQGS
# UniProt Q8WUD1: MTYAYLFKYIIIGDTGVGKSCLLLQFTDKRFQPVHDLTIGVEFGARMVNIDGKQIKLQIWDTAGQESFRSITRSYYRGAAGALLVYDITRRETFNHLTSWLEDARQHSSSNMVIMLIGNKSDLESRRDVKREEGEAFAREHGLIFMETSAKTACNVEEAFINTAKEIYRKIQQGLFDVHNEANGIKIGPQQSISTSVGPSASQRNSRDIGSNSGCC
# UniProt Q9BQ04: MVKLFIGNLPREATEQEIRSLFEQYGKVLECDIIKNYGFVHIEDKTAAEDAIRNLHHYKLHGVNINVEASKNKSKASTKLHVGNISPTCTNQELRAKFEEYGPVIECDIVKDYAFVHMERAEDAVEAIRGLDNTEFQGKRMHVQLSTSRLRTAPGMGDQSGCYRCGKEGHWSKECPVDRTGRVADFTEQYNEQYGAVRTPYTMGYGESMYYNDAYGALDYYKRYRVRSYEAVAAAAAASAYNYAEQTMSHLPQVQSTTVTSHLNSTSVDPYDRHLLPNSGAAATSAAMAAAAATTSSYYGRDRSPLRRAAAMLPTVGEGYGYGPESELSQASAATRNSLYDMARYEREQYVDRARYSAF
# UniProt Q96C36: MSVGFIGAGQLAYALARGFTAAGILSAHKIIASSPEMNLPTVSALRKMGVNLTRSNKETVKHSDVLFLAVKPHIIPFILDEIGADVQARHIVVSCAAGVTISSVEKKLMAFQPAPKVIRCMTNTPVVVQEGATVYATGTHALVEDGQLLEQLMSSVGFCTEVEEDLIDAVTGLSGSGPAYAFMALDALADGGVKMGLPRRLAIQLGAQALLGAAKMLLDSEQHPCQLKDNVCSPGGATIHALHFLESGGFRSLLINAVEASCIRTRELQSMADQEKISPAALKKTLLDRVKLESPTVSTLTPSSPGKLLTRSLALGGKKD
# UniProt O00487, whole entry: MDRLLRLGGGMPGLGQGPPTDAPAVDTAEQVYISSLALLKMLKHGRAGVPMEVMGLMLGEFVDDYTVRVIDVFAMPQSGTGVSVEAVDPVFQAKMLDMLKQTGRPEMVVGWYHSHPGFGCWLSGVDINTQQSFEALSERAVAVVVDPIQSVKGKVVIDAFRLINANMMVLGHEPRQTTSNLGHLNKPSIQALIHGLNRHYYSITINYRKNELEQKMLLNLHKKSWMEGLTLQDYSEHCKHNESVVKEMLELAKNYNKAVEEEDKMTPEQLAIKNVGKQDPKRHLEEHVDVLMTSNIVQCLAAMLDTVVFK
# UniProt Q8IUH3: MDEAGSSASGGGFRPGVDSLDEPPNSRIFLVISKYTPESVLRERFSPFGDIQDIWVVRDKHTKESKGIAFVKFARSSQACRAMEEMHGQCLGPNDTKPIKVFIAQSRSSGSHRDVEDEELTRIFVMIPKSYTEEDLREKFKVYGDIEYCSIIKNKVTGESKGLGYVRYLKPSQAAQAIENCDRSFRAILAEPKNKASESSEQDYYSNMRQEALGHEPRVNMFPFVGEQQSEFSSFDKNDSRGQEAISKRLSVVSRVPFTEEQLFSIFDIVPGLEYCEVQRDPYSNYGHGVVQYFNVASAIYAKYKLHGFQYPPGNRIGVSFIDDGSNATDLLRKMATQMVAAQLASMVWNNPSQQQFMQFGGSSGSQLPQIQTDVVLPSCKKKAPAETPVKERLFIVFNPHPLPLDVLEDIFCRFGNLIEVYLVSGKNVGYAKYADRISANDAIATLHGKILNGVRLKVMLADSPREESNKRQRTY
# UniProt O75884: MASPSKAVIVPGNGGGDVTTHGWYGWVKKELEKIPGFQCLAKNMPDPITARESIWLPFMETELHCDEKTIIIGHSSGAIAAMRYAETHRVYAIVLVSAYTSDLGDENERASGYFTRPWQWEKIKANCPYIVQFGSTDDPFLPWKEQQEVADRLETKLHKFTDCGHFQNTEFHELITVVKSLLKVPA
# UniProt P49792, whole entry: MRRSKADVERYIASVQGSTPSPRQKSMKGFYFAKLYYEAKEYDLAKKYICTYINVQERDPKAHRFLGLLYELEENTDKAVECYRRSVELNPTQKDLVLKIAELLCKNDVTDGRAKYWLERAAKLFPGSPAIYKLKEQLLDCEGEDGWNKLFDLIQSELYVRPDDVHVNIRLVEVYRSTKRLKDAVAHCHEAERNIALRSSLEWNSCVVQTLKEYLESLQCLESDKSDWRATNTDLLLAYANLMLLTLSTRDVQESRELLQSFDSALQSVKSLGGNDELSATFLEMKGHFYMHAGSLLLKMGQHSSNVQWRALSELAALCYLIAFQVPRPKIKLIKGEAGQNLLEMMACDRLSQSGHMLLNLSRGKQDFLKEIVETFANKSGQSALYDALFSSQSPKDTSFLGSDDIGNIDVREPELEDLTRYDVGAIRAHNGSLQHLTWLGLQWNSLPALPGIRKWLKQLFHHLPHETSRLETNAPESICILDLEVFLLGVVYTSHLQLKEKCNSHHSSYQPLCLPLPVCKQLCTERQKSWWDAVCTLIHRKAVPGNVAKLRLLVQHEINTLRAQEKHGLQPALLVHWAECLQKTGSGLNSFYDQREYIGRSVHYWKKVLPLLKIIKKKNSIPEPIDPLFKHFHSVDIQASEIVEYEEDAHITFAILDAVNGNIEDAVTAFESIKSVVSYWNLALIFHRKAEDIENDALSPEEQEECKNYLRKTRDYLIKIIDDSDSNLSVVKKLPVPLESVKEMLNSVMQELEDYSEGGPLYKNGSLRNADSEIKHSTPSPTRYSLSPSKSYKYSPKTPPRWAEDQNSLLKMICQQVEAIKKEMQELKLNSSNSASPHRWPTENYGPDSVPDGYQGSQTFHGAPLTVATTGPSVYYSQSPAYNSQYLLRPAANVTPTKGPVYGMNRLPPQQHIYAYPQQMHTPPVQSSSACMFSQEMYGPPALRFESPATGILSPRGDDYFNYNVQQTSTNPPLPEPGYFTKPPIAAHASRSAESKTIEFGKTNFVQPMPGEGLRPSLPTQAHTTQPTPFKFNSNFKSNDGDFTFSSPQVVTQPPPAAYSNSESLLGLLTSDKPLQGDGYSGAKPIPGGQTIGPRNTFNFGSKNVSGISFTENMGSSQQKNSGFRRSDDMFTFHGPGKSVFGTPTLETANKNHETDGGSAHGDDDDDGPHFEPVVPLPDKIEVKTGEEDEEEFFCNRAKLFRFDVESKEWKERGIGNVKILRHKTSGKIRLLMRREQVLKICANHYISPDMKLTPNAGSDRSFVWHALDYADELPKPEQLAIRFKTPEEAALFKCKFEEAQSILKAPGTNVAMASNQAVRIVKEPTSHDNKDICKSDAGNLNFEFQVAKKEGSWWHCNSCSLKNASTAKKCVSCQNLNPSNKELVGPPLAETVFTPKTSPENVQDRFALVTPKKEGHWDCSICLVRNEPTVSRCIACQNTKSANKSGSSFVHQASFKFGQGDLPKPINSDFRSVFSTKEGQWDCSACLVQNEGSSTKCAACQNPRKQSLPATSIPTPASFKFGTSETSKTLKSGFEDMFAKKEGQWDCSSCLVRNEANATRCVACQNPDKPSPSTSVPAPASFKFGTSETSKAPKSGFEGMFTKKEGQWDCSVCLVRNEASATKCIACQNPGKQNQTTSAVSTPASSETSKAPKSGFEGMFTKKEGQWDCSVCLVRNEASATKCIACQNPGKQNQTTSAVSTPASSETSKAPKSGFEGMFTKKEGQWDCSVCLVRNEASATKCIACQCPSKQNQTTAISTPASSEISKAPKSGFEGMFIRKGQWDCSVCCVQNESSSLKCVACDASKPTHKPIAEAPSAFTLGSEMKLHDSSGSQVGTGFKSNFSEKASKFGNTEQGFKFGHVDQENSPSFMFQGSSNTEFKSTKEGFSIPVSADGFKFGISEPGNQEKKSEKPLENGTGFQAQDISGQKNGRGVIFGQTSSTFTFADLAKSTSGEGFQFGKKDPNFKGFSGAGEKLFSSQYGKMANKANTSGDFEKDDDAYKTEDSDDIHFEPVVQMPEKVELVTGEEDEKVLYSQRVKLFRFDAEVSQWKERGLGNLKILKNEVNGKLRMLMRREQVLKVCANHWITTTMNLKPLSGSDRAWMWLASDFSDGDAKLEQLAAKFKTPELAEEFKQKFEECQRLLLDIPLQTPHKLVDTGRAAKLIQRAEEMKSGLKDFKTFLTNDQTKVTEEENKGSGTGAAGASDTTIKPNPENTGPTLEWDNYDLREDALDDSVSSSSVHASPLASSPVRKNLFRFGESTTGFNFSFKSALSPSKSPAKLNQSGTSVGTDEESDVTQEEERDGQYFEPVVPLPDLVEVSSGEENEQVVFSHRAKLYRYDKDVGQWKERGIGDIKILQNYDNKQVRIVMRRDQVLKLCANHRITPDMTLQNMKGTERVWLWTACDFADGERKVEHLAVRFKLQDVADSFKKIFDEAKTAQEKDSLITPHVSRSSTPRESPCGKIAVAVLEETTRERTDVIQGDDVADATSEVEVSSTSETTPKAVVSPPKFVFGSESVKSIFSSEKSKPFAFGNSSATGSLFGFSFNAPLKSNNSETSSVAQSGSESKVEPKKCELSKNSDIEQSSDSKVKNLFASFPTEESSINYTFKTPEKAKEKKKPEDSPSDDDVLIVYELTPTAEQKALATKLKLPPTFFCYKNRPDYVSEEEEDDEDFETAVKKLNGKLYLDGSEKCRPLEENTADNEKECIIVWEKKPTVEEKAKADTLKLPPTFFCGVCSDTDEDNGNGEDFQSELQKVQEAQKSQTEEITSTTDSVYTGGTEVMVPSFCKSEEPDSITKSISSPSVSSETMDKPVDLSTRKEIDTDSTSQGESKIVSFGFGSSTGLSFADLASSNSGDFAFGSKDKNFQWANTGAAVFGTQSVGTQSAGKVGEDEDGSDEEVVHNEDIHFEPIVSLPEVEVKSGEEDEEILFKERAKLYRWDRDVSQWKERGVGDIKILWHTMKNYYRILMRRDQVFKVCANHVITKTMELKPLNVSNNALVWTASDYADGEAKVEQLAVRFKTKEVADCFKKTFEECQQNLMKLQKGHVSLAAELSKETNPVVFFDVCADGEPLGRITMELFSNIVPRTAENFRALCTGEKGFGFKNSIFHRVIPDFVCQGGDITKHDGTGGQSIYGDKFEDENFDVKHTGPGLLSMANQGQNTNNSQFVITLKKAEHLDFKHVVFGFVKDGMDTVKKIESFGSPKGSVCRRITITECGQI
# UniProt Q9UBK7: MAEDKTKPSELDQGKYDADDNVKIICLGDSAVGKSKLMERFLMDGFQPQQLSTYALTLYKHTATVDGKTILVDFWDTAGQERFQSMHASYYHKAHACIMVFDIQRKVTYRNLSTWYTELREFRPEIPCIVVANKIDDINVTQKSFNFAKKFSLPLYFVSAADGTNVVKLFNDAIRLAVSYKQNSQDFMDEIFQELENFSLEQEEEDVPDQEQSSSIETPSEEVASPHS
# UniProt P61224: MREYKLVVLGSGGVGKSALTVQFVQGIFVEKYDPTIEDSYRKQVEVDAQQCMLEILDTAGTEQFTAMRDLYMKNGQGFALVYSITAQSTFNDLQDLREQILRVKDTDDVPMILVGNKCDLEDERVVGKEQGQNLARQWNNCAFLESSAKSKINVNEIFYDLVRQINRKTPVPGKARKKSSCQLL
# Compound: COc1ccc(Cn2ccc3ccc(C(=O)NO)cc32)cc1
# Test: dose-dependent thermal stabilisation call (2D-TPP, DLPTP, 10% FDR) (binary (1 = stabilised)); higher = stabilised by the compound
# Details: system: HL-60 intact cells; concentration range 0.04-10 µM
row,Target,dose-dependent thermal stabilisation call
1,RBBP7 (UniProt Q16576),inactive: 0
2,UniProt Q6UWH2_HUMAN,inactive: 0
3,RAB7A (UniProt P51149),inactive: 0
4,RBBP4 (UniProt Q09028),inactive: 0
5,RAB2B (UniProt Q8WUD1),inactive: 0
6,RBM4B (UniProt Q9BQ04),inactive: 0
7,PYCR2 (UniProt Q96C36),inactive: 0
8,PSMA7 (UniProt O14818),inactive: 0
9,RBM25 (UniProt P49756),inactive: 0
10,PUSL1 (UniProt Q8N0Z8),inactive: 0
11,PTTG1IP (UniProt P53801),inactive: 0
12,RAP1GDS1 (UniProt P52306),inactive: 0
13,PTPN6 (UniProt P29350),inactive: 0
14,PSMD14 (UniProt O00487),inactive: 0
15,RASAL2 (UniProt Q9UJF2),inactive: 0
16,RACGAP1 (UniProt Q9H0H5),inactive: 0
17,RAD21 (UniProt O60216),inactive: 0
18,RBM6 (UniProt P78332),inactive: 0
19,RBM45 (UniProt Q8IUH3),inactive: 0
20,RBBP9 (UniProt O75884),inactive: 0
21,PRMT6 (UniProt Q96LA8),inactive: 0
22,RAC1 (UniProt P63000),inactive: 0
23,PRPF40A (UniProt O75400),inactive: 0
24,RANBP2 (UniProt P49792),inactive: 0
25,RABL2A (UniProt Q9UBK7),inactive: 0
26,RBM8A (UniProt Q9Y5S9),inactive: 0
27,RAP1B (UniProt P61224),inactive: 0

# Some of the entries above, reformatted:
row | Target | dose-dependent thermal stabilisation call
2 | UniProt Q6UWH2_HUMAN | inactive: 0
23 | PRPF40A (UniProt O75400) | inactive: 0
